{
  "source": "patent US6506745B1",
  "about": "“Medicinal compositions for treatment of atrial fibrillation” (Noboru Kaneko, priority 1998, dated 2003)",
  "tested_on": "atrial fibrillation induced by means of electrical stimulation",
  "assay": "Atrial fibrillation induced by electrical stimulation in chronically paced right atrium",
  "assay_type": "in vivo, hybrid of a labrador and beagle",
  "conditions": "i.v. infusion; excitation current 10 mA; FIG. 1",
  "text": "In the experimental test, a hybrid of a labrador and beagle was used. An electrode for electrical excitation was embedded in the right atrium. From a week after the operation, the right atrium was subjected to a continuous pacing at an excitation frequency of 400 or 600 bpm by an external pacemaker. Further, for 31 day, the right atrium was subjected to a pacing giving a burst excitation (10 mA,50 Hz,1 sec) 5 days a week and several hours a day. Compound 1 was continuously injected into forearm vein (0.3mg/kg/min×2 min+0.03 mg/kg/min). At 20 minutes before and after administrating, the excitation current (50 Hz, 1 sec) was increased from 3 mA to 10 mA in increments of 0.5 mA to determine each atrial fibrillation threshold (AFT). Then, the atrial fibrillation duration (AF duration) and the interval (FF interval) of atrial fibrillation waves, which were generated by the excitation current of 10 mA, were measured. In FIG. 1, the mean value of the AF duration before administration was 35.1±9.0 sec, and the mean value after administration was 12.1±1.9 sec. In FIG. 2, the mean value of the FF interval before administration was 51.3±1.7 msec, and the mean value after administration was 61.7±1.8 msec.",
  "note": "For at least one compound, name, drawing or mass did not settle the structure.",
  "data": [
    {"molecule": "COc1ccc2c(c1)CN(C(=O)CCN1CCC(Cc3ccccc3)CC1)CCS2", "note": "[Compound 1, 4-[3-(4-benzylpiperidine-1-yl)propionyl]-7-methoxy-2,3,4,5-tetrahydro-1,4-benzothiazepine]", "values": [
      {"measurement": "AF duration after administration relative to before", "result": "about one third"}
    ]}
  ]
}
